Laboratory results as given in the supplement of paper PMC10849652.
The list shows a part of the results.

Sequences of proteins named here, by UniProt entry; tags and fusion partners are left off. A change or cut given only in a name is not applied to a line headed by its entry.
UniProt O00170: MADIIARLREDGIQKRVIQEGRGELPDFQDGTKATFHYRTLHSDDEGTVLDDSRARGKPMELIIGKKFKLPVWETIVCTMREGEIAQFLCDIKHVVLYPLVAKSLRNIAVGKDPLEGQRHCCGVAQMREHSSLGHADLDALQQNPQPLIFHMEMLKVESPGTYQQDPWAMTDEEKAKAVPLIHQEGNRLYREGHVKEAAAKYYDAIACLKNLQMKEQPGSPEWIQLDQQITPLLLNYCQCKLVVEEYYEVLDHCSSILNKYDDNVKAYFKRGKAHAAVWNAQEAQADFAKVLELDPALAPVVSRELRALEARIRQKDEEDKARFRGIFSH
UniProt P07311: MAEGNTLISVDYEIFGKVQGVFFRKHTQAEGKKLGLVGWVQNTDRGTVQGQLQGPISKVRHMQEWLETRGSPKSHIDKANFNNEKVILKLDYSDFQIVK
UniProt P33121: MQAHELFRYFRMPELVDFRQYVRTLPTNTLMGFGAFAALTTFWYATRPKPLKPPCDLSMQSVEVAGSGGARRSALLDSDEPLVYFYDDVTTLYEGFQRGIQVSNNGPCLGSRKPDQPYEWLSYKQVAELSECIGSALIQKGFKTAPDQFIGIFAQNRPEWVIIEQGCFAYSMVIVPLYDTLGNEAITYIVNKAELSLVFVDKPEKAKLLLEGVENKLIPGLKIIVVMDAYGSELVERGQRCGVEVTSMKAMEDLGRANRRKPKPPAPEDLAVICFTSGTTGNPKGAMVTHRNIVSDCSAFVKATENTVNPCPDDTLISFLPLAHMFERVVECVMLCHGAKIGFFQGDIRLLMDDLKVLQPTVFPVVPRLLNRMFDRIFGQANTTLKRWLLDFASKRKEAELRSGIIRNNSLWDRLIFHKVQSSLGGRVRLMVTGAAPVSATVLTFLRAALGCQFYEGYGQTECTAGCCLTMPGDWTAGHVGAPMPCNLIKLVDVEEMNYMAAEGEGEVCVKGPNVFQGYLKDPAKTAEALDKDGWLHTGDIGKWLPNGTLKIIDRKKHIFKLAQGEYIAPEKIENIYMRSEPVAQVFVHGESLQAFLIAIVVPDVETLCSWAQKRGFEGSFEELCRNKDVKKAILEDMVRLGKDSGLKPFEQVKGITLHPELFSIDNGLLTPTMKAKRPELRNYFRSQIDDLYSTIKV
UniProt P52594: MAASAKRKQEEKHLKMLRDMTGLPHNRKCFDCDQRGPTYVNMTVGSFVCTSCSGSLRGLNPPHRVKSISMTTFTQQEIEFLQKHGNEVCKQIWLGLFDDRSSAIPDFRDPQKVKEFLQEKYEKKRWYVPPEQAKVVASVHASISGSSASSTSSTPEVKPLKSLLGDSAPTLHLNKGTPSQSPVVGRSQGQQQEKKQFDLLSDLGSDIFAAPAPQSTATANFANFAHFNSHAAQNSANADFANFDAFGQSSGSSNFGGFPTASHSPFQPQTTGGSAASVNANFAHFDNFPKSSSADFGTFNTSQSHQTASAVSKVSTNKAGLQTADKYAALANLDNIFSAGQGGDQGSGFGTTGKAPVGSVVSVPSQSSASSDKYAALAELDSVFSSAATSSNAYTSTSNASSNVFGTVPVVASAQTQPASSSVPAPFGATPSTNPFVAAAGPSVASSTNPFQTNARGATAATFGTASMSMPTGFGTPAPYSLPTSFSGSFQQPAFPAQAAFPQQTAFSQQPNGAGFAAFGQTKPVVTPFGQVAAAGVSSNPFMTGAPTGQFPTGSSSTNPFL
UniProt Q9UHB7: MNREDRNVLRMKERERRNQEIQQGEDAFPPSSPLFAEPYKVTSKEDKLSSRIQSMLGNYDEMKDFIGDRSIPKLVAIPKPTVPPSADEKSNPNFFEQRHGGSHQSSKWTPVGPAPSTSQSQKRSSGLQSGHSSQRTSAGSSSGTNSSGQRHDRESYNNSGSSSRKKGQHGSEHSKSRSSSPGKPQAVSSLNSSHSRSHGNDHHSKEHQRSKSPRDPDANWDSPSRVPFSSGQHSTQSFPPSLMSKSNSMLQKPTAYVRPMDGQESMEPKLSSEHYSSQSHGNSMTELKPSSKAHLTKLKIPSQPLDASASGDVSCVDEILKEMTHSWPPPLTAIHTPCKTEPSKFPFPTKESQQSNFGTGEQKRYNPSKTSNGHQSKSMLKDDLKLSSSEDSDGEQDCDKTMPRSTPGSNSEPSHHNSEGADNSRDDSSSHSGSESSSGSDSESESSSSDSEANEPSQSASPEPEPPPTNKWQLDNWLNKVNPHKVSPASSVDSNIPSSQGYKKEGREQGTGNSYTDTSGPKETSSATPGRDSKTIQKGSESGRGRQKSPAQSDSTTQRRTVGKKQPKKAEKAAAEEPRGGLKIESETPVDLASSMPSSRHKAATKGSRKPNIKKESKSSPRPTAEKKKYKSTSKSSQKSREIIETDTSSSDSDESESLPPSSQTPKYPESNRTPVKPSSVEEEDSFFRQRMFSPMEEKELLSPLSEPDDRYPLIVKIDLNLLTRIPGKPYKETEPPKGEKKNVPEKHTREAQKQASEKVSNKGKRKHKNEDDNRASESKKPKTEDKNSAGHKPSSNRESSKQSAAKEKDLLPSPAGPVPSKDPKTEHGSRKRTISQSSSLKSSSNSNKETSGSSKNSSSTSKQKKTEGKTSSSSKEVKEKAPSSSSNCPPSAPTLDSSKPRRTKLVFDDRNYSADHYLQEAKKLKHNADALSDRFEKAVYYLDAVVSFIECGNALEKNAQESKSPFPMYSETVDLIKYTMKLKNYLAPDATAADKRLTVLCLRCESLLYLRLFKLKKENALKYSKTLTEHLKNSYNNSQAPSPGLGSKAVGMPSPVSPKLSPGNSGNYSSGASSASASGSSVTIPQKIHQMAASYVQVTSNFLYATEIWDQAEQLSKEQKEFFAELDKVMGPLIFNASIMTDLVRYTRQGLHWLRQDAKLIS
UniProt P11766: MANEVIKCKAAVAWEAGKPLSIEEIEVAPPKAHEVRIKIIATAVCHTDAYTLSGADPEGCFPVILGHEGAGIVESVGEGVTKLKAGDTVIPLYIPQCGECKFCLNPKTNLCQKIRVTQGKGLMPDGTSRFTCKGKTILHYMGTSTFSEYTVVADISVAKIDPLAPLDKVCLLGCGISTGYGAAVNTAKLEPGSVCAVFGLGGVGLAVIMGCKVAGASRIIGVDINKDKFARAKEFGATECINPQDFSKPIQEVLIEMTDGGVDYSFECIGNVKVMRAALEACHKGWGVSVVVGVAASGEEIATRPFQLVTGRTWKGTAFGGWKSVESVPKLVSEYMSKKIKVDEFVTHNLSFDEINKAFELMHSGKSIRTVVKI
UniProt Q9H2P0: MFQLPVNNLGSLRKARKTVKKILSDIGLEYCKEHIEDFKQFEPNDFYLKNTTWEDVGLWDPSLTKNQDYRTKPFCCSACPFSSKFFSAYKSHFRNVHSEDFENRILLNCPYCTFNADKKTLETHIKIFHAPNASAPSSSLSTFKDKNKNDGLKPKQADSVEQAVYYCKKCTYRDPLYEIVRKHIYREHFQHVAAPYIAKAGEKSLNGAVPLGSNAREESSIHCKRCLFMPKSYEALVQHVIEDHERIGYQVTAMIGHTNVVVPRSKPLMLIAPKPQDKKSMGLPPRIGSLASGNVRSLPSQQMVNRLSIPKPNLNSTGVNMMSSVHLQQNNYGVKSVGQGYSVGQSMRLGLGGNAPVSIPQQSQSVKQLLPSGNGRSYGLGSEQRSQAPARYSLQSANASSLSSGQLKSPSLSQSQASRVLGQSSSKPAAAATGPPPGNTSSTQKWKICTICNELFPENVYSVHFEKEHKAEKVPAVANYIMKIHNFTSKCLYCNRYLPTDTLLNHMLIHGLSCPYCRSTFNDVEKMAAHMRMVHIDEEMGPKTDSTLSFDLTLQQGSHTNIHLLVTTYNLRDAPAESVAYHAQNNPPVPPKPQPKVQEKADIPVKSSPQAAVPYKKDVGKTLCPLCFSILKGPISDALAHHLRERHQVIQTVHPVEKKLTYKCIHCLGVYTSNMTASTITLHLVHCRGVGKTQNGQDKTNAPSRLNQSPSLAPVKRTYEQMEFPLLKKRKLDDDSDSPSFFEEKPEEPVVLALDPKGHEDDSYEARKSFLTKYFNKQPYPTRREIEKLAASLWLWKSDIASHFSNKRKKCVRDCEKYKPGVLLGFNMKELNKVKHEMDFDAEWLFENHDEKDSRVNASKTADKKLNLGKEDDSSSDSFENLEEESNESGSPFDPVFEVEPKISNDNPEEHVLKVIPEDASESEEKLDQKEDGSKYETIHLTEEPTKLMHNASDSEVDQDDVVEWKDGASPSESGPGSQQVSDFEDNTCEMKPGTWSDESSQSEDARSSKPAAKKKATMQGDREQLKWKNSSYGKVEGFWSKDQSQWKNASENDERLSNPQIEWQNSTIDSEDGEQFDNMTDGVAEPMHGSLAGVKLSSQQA
UniProt P42330: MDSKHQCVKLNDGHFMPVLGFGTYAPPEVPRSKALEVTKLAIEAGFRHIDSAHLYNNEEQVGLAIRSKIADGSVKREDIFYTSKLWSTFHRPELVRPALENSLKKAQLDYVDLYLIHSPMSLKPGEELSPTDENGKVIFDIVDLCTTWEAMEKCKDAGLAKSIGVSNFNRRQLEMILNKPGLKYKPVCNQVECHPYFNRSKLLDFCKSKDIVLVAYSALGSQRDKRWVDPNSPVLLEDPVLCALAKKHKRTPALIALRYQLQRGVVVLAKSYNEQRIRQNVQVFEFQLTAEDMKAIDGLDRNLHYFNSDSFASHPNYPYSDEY
UniProt O60488: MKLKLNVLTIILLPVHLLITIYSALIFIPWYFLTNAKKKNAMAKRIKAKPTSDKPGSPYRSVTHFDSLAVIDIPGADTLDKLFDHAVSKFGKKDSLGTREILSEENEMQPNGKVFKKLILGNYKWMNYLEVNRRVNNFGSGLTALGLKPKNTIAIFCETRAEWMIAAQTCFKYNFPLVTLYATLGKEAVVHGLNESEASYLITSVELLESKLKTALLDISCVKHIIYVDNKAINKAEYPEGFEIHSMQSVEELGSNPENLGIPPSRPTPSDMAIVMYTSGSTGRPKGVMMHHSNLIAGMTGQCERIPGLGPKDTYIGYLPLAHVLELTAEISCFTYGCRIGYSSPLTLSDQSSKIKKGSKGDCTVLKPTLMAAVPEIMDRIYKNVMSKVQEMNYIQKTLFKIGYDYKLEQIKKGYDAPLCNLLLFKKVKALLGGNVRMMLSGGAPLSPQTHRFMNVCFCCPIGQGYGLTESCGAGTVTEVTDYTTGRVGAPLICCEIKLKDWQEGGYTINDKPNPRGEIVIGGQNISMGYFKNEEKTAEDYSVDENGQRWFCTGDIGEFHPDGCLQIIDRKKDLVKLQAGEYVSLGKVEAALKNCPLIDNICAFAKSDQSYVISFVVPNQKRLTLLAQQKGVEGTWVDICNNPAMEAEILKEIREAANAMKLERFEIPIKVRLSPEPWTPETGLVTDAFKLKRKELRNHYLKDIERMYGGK
UniProt P24666: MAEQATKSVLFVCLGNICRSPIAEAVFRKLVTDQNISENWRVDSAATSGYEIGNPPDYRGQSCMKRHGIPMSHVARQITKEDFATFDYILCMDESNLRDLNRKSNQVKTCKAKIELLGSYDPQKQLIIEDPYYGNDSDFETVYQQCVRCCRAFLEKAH
UniProt P27144: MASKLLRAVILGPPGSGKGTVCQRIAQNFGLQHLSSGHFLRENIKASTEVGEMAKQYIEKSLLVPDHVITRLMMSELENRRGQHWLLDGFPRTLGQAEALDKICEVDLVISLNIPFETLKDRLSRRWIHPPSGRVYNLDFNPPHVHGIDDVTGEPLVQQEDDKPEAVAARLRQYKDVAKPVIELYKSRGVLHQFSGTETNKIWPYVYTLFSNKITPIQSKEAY
UniProt O00116: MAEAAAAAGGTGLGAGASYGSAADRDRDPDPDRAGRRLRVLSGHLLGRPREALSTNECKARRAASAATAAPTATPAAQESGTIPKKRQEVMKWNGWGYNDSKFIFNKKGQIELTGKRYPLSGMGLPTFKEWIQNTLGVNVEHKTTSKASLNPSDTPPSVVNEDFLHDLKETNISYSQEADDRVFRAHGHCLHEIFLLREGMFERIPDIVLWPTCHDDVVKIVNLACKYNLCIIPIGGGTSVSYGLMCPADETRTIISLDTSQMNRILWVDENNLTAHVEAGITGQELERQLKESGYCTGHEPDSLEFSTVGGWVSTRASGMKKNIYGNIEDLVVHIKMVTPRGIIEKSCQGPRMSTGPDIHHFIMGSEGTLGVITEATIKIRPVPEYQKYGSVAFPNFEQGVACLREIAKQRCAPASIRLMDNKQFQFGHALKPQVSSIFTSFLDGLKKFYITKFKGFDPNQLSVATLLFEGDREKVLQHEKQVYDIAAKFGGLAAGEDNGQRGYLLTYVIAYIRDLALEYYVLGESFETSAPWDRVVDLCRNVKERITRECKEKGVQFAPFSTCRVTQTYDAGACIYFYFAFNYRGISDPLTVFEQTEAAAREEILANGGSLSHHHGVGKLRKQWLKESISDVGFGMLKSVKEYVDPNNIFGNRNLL

Compound: CC(C)(O)CC(=O)NCCn1ccc2ncnc(Nc3ccc(Oc4cccc(C(F)(F)F)c4)c(Cl)c3)c21
Experiment: log2 fold change, soluble protein after heating vs DMSO (PISA); higher = thermal stabilisation; K562 lysate, 10 uM; active = over 0.2 and 3.5 SD of the protein, either way, in both replicates (recomputed)
Procedure, shortened: (§1)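 Quantification was by TMTpro 16plex LC-MS/MS with equalised channel sums, applied to the supernatant after 21,000xg for 90 min. Samples were crude K562 extract at 1 mg/mL protein in PBS pH 7.4 with 1 mM MgCl2, treated with 10 μM compound for 30 min, heated for 3 min across 48°C-58°C, pooled and brought to 0.5% NP-40 at 4°C. Values are log-two fold changes in thermal stability relative to solvent controls, from duplicates.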

| Target | log2 fold change |
| --- | --- |
| AIP (UniProt O00170) | inactive: -0.003 |
| ACY1 (UniProt Q03154) | inactive: 0.022 |
| ACTG1 (UniProt I3L4N8) | inactive: 0.065 |
| ACYP1 (UniProt P07311) | inactive: -0.024 |
| ADIPOR2 (UniProt Q86V24) | inactive: 0.066 |
| ACSL1 (UniProt P33121) | inactive: -0.075 |
| ACOT9 isoform 4 (UniProt Q9Y305) | inactive: 0.02 |
| AGFG1 isoform 4 (UniProt P52594) | inactive: -0.035 |
| ADA (UniProt P00813) | inactive: -0.065 |
| ADAM10 (UniProt O14672) | inactive: -0.02 |
| AFF4 (UniProt Q9UHB7) | inactive: 0.033 |
| AKNA (UniProt Q7Z591) | inactive: -0.015 |
| ACSM3 (UniProt Q53FZ2) | inactive: -0.027 |
| ADH5 (UniProt P11766) | inactive: 0.001 |
| ADNP (UniProt Q9H2P0) | inactive: 0.005 |
| AKR1C3 (UniProt P42330) | inactive: -0.003 |
| ADD1 isoform 3 (UniProt P35611) | inactive: -0.01 |

| Target | log2 fold change |
| --- | --- |
| ADO (UniProt Q96SZ5) | inactive: 0.01 |
| ACSL4 (UniProt O60488) | inactive: -0.022 |
| AKR1A1 (UniProt P14550) | inactive: 0 |
| ACP1 isoform 2 (UniProt P24666) | inactive: -0.031 |
| ACTR1A (UniProt P61163) | inactive: -0.004 |
| AKAP12 (UniProt Q02952) | inactive: 0.031 |
| AK4 (UniProt P27144) | inactive: -0.016 |
| AGPS (UniProt O00116) | inactive: -0.07 |
| ACTB, A0A2R8Y793 | inactive: 0.008 |
| ACTR2 (UniProt P61160) | inactive: -0.02 |
| ACSF3 (UniProt Q4G176) | inactive: 0.021 |
| AGTPBP1 (UniProt Q9UPW5) | inactive: -0.058 |
| AHSA1 (UniProt O95433) | inactive: -0.027 |
| ADPRH (UniProt P54922) | inactive: 0 |
| AFF1 isoform 2 (UniProt P51825) | inactive: -0.02 |
| AGAP3 isoform 4 (UniProt Q96P47) | inactive: -0.007 |
| AIFM1 (UniProt O95831) | inactive: 0.006 |

Compound: CC(C)C1=C2N=C(C=C(N2N=C1)NCC3=CC=CC=C3)NCCCCCCN
Experiment: as above
Procedure, shortened: as §1

| Target | log2 fold change |
| --- | --- |
| AIP (UniProt O00170) | inactive: -0.012 |
| ACY1 (UniProt Q03154) | inactive: 0.005 |
| ACTG1 (UniProt I3L4N8) | inactive: -0.184 |
| ACYP1 (UniProt P07311) | inactive: -0.011 |
| ADIPOR2 (UniProt Q86V24) | inactive: -0.036 |
| ACSL1 (UniProt P33121) | inactive: 0.01 |
| ACOT9 isoform 4 (UniProt Q9Y305) | inactive: 0.057 |
| AGFG1 isoform 4 (UniProt P52594) | inactive: 0.007 |
| ADA (UniProt P00813) | inactive: 0.044 |
| ADAM10 (UniProt O14672) | inactive: -0.02 |
| AFF4 (UniProt Q9UHB7) | inactive: -0.008 |
| AKNA (UniProt Q7Z591) | inactive: -0.002 |
| ACSM3 (UniProt Q53FZ2) | inactive: 0.003 |
| ADH5 (UniProt P11766) | inactive: -0.008 |
| ADNP (UniProt Q9H2P0) | inactive: -0.02 |
| AKR1C3 (UniProt P42330) | inactive: -0.039 |
| ADD1 isoform 3 (UniProt P35611) | inactive: -0.005 |

| Target | log2 fold change |
| --- | --- |
| ADO (UniProt Q96SZ5) | inactive: 0.053 |
| ACSL4 (UniProt O60488) | inactive: -0.015 |
| AKR1A1 (UniProt P14550) | inactive: 0.01 |
| ACP1 isoform 2 (UniProt P24666) | inactive: 0.01 |
| ACTR1A (UniProt P61163) | inactive: 0.001 |
| AKAP12 (UniProt Q02952) | inactive: 0.083 |
| AK4 (UniProt P27144) | inactive: -0.008 |
| AGPS (UniProt O00116) | inactive: -0.065 |
| ACTB, A0A2R8Y793 | inactive: 0.036 |
| ACTR2 (UniProt P61160) | inactive: 0.019 |
| ACSF3 (UniProt Q4G176) | inactive: -0.002 |
| AGTPBP1 (UniProt Q9UPW5) | inactive: 0.008 |
| AHSA1 (UniProt O95433) | inactive: 0.005 |
| ADPRH (UniProt P54922) | inactive: 0.016 |
| AFF1 isoform 2 (UniProt P51825) | inactive: -0.001 |
| AGAP3 isoform 4 (UniProt Q96P47) | inactive: 0.005 |
| AIFM1 (UniProt O95831) | inactive: -0.003 |

Compound: CC1=C(C(CC(=O)N1)C2=CC=C(C=C2)C(F)(F)F)C(=O)NC3=C(C=C4C(=C3)C=NN4)F
Experiment: as above
Procedure, shortened: as §1

| Target | log2 fold change |
| --- | --- |
| AIP (UniProt O00170) | inactive: -0.011 |
| ACY1 (UniProt Q03154) | inactive: -0.013 |
| ACTG1 (UniProt I3L4N8) | inactive: 0.038 |
| ACYP1 (UniProt P07311) | inactive: -0.021 |
| ADIPOR2 (UniProt Q86V24) | inactive: -0.03 |
| ACSL1 (UniProt P33121) | inactive: 0.024 |
| ACOT9 isoform 4 (UniProt Q9Y305) | inactive: 0.034 |
| AGFG1 isoform 4 (UniProt P52594) | inactive: -0.004 |
| ADA (UniProt P00813) | inactive: -0.023 |
| ADAM10 (UniProt O14672) | inactive: 0.021 |
| AFF4 (UniProt Q9UHB7) | inactive: -0.028 |
| AKNA (UniProt Q7Z591) | inactive: 0.254 |
| ACSM3 (UniProt Q53FZ2) | inactive: -0.04 |
| ADH5 (UniProt P11766) | inactive: -0.014 |
| ADNP (UniProt Q9H2P0) | inactive: 0.059 |
| AKR1C3 (UniProt P42330) | inactive: 0.011 |
| ADD1 isoform 3 (UniProt P35611) | inactive: 0.007 |

| Target | log2 fold change |
| --- | --- |
| ADO (UniProt Q96SZ5) | inactive: 0.01 |
| ACSL4 (UniProt O60488) | inactive: 0.027 |
| AKR1A1 (UniProt P14550) | inactive: -0.016 |
| ACP1 isoform 2 (UniProt P24666) | inactive: -0.085 |
| ACTR1A (UniProt P61163) | inactive: 0.024 |
| AKAP12 (UniProt Q02952) | inactive: -0.17 |
| AK4 (UniProt P27144) | inactive: 0.021 |
| AGPS (UniProt O00116) | inactive: 0.012 |
| ACTB, A0A2R8Y793 | inactive: -0.004 |
| ACTR2 (UniProt P61160) | inactive: -0.005 |
| ACSF3 (UniProt Q4G176) | inactive: 0.011 |
| AGTPBP1 (UniProt Q9UPW5) | inactive: -0.026 |
| AHSA1 (UniProt O95433) | inactive: 0.002 |
| ADPRH (UniProt P54922) | inactive: 0.049 |
| AFF1 isoform 2 (UniProt P51825) | inactive: 0.037 |
| AGAP3 isoform 4 (UniProt Q96P47) | inactive: -0.069 |
| AIFM1 (UniProt O95831) | inactive: -0.032 |
